# Microarray screen: hit calls

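Compounds were printed on reactive glass slides in duplicate spots, a dye-labelled oligonucleotide was laid over them, and the fluorescence left after washing was read. For the PreQ1, TPP and SAM-II riboswitches the laboratory earlier reported (doi:10.1038/s41467-019-09493-3) 1 µM RNA, 2 h, and a rule that included a mean Z-score above 3 (spot signal-to-noise against the whole library), a score well above that on a control array, and duplicate spots agreeing (coefficient of variation under 100). The data file gives only the calls; its cut-offs may differ, and compounds hitting several targets are kept. A missing hit is not proof of no binding, and a hit is not a measured affinity.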 Key: 1 = hit, 0 = tested without a hit. Compounds were drawn at random from those tested, without regard to their results.

Oligonucleotides screened, 5′ to 3′:
T1: PreQ1 riboswitch RNA pseudoknot, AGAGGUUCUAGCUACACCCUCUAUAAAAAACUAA. From B. subtilis. Hit rate about 0.7% of about 24,000 compounds.
T2: TPP riboswitch RNA three-way junction, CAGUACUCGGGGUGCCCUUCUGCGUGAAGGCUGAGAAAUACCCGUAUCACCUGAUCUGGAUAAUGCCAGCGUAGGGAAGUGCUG. Hit rate about 0.7% of about 24,000 compounds.
T3: SAM-II riboswitch RNA pseudoknot, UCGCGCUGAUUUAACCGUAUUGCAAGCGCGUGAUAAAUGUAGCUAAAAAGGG. Hit rate about 1% of about 21,000 compounds.

SMILES,T1,T2,T3
CCc1nnc(CN(C(=O)c2cccc(NCc3cccs3)c2)C(C)C)o1,0,0,0
CCCn1cc(S(=O)(=O)N2C[C@H]3C[C@H](O)[C@@H](O)C[C@H]3C2)cn1,0,0,0
C=CCN1CC2(CCC1=O)CCN(C(=O)[C@H](O)C(C)C)CC2,0,0,0
COc1cc2c(cc1OC)[C@@H]1Cc3ccc(OC)c(OC)c3CN1CC2,0,0,0
Cc1ccccc1-c1ncc(CNCc2ccc3c(c2)OCCCO3)s1,0,0,0
COc1cc(CNCc2ccc(OC)c3ccccc23)cc(OC)c1OC,0,0,0
CCN1CCCC1CNC(=O)c1cc(S(=O)(=O)CC)c(N)cc1OC (stereo not given),0,0,0
CCCCOC(=O)C1=C(N)OC(C)=C(C(=O)OC(C)(C)C)C12C(=O)Nc1ccccc12 (stereo not given),0,0,0
NC(=O)CCn1cc(CNCCOc2ccccc2Cl)c2ccccc21,0,0,0
O=S1(=O)CCN(Cc2ccccn2)CC1,0,0,0
CC1(C)Cc2nc(NCCO)c(C#N)cc2CO1,0,0,0
O=C(c1c[nH]nc1C1CCCCC1)N1Cc2cnn(CCO)c2C1,0,0,0
CCC(=O)Nc1cccc(C(=O)NCC(O)COc2cccc(OC)c2)c1 (stereo not given),0,0,0
CCCC(C)C1C(C#N)=C(N)Oc2c1c(=O)oc1ccccc21 (stereo not given),0,0,0
CC(C)c1ccc(OCC(O)Cn2cnc3ccccc32)cc1 (stereo not given),0,0,0
Clc1cccc(Cl)c1NC1=NCCN1,0,0,0
COC(=O)CN1CCC(NC2CCCNC2)CC1 (stereo not given),0,0,0
Cn1ncc(N2CCC(CNC(=O)[C@@H](N)Cc3c[nH]cn3)CC2)cc1=O,0,0,0
Cc1ccc(Nc2nc3nonc3nc2N2CCCCC2)cc1C,0,0,0

Once more, the final 2:

{"smiles": "Cn1ncc(N2CCC(CNC(=O)[C@@H](N)Cc3c[nH]cn3)CC2)cc1=O", "T1": "0", "T2": "0", "T3": "0"}
{"smiles": "Cc1ccc(Nc2nc3nonc3nc2N2CCCCC2)cc1C", "T1": "0", "T2": "0", "T3": "0"}

Data from the ROBIN nucleic acid binder screens, doi:10.1002/anie.202211358.